{
  "sequences": {"note": "By UniProt entry, the sequences of proteins in these tests, tags left out.", "UniProt A5YKK6, whole entry": "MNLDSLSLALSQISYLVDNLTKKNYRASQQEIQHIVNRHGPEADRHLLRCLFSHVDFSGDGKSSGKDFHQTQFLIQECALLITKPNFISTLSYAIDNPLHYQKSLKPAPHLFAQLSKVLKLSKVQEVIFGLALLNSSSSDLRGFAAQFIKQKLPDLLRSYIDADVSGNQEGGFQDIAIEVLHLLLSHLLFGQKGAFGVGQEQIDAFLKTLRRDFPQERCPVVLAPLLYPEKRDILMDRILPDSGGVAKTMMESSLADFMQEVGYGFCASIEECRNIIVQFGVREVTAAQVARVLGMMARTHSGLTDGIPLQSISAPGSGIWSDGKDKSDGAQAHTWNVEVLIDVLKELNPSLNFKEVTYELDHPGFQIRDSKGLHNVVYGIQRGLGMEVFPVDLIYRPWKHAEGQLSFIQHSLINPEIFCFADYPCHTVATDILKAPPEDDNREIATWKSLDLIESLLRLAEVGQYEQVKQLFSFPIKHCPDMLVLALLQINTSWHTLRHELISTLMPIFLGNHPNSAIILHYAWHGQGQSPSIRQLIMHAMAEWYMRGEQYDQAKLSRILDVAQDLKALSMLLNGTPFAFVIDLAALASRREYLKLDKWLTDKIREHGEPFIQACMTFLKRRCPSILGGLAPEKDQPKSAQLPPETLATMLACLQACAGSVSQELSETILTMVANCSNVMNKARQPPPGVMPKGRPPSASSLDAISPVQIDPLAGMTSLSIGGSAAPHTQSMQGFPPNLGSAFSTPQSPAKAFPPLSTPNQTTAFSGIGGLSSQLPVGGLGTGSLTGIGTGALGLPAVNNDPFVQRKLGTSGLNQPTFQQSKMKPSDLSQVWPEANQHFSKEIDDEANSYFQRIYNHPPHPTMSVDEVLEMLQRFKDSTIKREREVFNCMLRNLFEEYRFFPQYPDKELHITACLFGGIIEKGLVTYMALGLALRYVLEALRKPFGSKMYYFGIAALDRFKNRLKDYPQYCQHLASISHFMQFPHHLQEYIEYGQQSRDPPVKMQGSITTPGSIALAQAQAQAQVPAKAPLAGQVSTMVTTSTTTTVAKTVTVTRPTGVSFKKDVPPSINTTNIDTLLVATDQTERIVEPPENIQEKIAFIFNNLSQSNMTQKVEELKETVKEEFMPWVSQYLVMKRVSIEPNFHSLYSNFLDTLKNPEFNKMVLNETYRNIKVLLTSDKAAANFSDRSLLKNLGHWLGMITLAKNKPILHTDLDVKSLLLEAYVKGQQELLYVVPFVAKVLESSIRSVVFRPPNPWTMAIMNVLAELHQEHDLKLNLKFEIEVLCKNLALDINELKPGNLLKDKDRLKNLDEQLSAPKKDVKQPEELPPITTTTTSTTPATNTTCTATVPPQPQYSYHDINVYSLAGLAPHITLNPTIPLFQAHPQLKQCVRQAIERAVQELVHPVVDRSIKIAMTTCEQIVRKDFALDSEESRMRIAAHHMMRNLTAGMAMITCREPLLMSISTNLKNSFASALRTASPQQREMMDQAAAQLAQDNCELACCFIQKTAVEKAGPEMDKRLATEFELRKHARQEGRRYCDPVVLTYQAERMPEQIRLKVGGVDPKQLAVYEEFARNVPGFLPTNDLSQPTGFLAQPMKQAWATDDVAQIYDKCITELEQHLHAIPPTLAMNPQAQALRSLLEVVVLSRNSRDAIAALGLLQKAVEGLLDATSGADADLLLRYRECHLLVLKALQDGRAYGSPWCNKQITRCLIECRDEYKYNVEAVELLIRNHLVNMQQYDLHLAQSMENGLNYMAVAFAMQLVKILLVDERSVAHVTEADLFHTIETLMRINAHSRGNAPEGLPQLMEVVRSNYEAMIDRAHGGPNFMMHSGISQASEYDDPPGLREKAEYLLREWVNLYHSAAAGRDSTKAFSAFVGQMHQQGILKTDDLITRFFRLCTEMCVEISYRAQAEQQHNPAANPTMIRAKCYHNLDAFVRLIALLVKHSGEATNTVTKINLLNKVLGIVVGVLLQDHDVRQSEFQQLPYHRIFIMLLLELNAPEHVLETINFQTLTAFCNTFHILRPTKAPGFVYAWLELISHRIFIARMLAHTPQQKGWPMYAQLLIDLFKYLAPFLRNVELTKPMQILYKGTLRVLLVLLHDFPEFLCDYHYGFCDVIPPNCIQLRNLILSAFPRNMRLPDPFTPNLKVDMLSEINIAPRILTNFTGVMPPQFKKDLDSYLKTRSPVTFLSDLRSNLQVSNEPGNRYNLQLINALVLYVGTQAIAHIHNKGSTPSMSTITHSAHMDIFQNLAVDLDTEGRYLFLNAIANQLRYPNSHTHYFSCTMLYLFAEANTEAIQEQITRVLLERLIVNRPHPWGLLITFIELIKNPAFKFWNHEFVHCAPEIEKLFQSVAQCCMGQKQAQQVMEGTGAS", "UniProt Q8K0V4, whole entry": "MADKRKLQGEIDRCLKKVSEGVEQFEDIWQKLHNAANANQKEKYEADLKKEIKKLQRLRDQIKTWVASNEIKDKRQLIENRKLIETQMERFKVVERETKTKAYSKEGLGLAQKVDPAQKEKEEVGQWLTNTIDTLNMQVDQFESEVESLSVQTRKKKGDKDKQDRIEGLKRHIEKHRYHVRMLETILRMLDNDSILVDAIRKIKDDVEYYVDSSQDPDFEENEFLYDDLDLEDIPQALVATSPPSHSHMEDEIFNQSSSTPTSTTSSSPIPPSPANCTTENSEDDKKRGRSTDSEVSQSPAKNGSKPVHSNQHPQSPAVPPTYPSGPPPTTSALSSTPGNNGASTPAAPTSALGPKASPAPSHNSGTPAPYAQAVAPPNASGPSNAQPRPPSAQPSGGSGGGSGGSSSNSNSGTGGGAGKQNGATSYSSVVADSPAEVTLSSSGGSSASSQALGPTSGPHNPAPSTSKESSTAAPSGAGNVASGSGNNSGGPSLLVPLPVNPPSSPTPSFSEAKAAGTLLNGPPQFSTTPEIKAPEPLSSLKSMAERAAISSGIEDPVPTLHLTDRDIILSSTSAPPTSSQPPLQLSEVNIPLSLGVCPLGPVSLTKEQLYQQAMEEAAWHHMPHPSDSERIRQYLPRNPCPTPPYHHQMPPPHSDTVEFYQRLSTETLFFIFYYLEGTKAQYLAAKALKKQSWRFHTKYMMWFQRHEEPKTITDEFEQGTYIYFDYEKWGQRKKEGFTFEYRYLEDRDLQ"},
  "source": "paper doi:10.1101/2020.02.02.931477",
  "target": "T1, HA-tagged mouse Bicc1 (wild type) (mouse) (UniProt Q99MQ1)",
  "T1 sequence": "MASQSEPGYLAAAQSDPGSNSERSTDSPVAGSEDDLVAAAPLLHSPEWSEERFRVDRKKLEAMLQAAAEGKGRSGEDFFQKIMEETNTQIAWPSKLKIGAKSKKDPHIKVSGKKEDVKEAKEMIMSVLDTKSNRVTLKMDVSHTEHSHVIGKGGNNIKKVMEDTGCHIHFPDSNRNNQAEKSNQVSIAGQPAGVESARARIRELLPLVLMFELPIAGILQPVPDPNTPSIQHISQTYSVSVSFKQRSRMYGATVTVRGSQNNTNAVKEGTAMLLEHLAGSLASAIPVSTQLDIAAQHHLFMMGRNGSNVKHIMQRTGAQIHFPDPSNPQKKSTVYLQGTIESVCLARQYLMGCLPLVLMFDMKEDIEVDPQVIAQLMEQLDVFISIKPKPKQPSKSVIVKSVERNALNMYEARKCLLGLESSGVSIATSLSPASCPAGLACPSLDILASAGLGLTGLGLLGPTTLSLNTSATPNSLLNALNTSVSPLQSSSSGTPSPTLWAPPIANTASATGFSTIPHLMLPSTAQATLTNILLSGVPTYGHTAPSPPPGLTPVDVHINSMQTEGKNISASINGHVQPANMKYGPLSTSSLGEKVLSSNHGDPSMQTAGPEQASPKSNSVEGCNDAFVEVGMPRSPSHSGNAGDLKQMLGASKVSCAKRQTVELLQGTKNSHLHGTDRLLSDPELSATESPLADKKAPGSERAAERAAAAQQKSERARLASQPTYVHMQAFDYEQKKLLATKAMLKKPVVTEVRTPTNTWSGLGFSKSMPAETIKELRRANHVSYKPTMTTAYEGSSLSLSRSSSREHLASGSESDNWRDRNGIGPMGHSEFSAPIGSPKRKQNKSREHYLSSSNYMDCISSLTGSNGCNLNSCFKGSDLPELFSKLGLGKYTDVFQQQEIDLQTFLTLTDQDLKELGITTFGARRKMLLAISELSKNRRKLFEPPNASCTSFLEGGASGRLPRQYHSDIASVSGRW",
  "test": "co-IP",
  "note": "These are yes or no findings as the source states them, for the method shown. Binding seen in cells or lysates may run through a third protein. Some results given as binding are weak or reduced against the parent protein; the word gives no strength. Sequences can lack the tags named with a protein.",
  "data": [
    {"substance": "endogenous Cnot1 (from UniProt A5YKK6 1-2376)", "values": [
      {"measurement": "binding", "value": "binds"}
    ]},
    {"substance": "FLAG-tagged mouse Cnot3 (Cnot3-Myc-Flag) (from UniProt Q8K0V4 1-751)", "values": [
      {"measurement": "binding", "value": "binds"}
    ]}
  ]
}
